From the supplement of paper PMC8007513
The list shows a part of the results. Repeats are few or missing, and single values can be far off.

Test system: Saccharomyces cerevisiae BY4743
Test: growth (OD600) relative to untreated control; higher = less growth inhibition
Conditions: compound concentration: 133 uM; 20 h
Description: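 NMCCC compounds (133 uM, no IPBC) tested alone against Saccharomyces cerevisiae BY4743 in YPD, 96-well plates, starting OD600 ~0.1. Growth was read as OD600 at 20 h and expressed as % of the untreated control. Single pass.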

Row | SMILES | growth
1 | CSc1ncc(Cl)c(C(=O)NC2CC3CCC2(C)C3(C)C)n1 (configuration not stated) | 102%
2 | Cc1nc2ncnn2c(O)c1Cc1ccccc1Cl | 105%
3 | CCC(=O)Nc1nc2ccc(NC(=O)Nc3ccccc3OC)cc2s1 | 101%
4 | Cc1ccc(-c2nnc(SC(C)C(=O)NC(=O)NC(C)(C)C)o2)cc1C (configuration not stated) | 99.2%
5 | Cc1nc(Nc2ccc(F)cc2Cl)c2cc(C)sc2n1 | 97.9%
6 | Cc1nn(C)c(C)c1CNS(=O)(=O)c1ccc2c(c1)oc(=O)n2C | 86.9%
7 | CCOc1ccccc1NC(=O)c1cnn2cccnc12 | 97%
8 | Cc1nc2ccc(S(=O)(=O)NC(CC(C)C)C(=O)N3CCCCCC3)cc2s1 (configuration not stated) | 107%
9 | CC(C)NC(=O)CNC(=O)CSc1nnc(NCc2ccc(F)cc2)s1 | 112%
10 | CCc1nnc(NC(=O)CSc2nccn2Cc2ccco2)s1 | 101%
11 | CC(C)CCNc1cc(-c2ccccc2)nc2nncn12 | 107%
12 | COc1ccc(Cn2ccnc2SCC(=O)NC2CCCCC2)cc1 | 102%
13 | O=C(CCNC(=O)NCc1ccccc1)NC(c1ccccc1)c1cccs1 (configuration not stated) | 94.5%
14 | Cc1[nH]c2ccc(C(=O)N(C)Cc3ccc(Br)s3)cc2c1C | 99.6%
15 | Cc1nc(SC(C)C(=O)N2CCNC2=O)c(C#N)c(C)c1C (configuration not stated) | 92%
16 | O=S(=O)(NCc1ccccc1Cn1cccn1)c1ccccc1C(F)(F)F | 106%
17 | Cc1cc(CS(=O)(=O)C(C)C(=O)Nc2ccc(Cl)cc2)on1 (configuration not stated) | 115%
18 | CCCCc1nnc(NC(=O)COc2ccccc2-c2ccccc2)s1 | 100%
19 | COc1ccc(S(=O)(=O)Nc2c(C)cc(C)cc2C)cc1N(C)S(C)(=O)=O | 98.7%
20 | Cc1ccnc(NS(=O)(=O)c2ccc(NS(=O)(=O)Cc3ccccc3)cc2)n1 | 98.3%
21 | O=C(CN1CCN(c2csc(Cl)n2)CC1)Nc1ccc(Cl)c(C(F)(F)F)c1 | 103%
22 | CC1=C(C(=O)OCC(C)C)C(/C=C/c2ccccc2)N2C(=O)CCSC2=N1 (configuration not stated) | 104%

Another view of some results above:
CC(C)CCNc1cc(-c2ccccc2)nc2nncn12
  growth: 107%
COc1ccc(Cn2ccnc2SCC(=O)NC2CCCCC2)cc1
  growth: 102%
